Data as given in PubChem BioAssay AID1159584 (Peter MacCallum Cancer Centre, 2016)
The whole screen tested about 18,000 reagents; this is a random part of them. Further read-outs or replicates are left out here. Not given: the amount of reagent, the time to read-out.

Test: 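Knock-downs that harm CDH1-null cells more than parental MCF10A cells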 (primary screen)
System: human MCF10A breast epithelial cells, parental and CDH1-null
Reagent: siRNA against human genes
Measured: 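Cell viability by CellTiter-Glo ATP luminescence, each line scaled to the mean of mock wells across plates, then CDH1-null over parental ratio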
Scale: CDH1-null / parental viability ratio: higher = CDH1-null cells survive relatively better than parental

After knock-down of SEC14L4, the screen gave CDH1-null / parental viability ratio 0.97.
SYVN1 gave CDH1-null / parental viability ratio 0.96.
With knock-down of ARFRP1, the screen gave CDH1-null / parental viability ratio 1.09.
SHBG scored CDH1-null / parental viability ratio 0.99.
COQ4 showed CDH1-null / parental viability ratio 1.09.
After knock-down of SLC7A5, the screen gave CDH1-null / parental viability ratio 0.93.
With knock-down of MAP2K1 the results were CDH1-null / parental viability ratio 0.88.
Depletion of PCDHGA1 came out at: CDH1-null / parental viability ratio 0.93.
For SOX7, the values are CDH1-null / parental viability ratio 1.27.
For ACTR10, the entry reads CDH1-null / parental viability ratio 0.78.
SYT6 showed CDH1-null / parental viability ratio 1.09.
Silencing of IFIH1 gave: CDH1-null / parental viability ratio 0.78.
Silencing of SMCO3 came out at: CDH1-null / parental viability ratio 1.23.
Depletion of ITGAD came out at: CDH1-null / parental viability ratio 1.
Against DGKZ, the values are CDH1-null / parental viability ratio 1.1.
CX3CL1 gave CDH1-null / parental viability ratio 0.91.
SELENOT scored CDH1-null / parental viability ratio 1.02.
Against BLOC1S2, the entry reads CDH1-null / parental viability ratio 0.95.
GPR87 showed CDH1-null / parental viability ratio 0.82.
Depletion of ADAM20 resulted in: CDH1-null / parental viability ratio 1.11.
Silencing of SH3PXD2B came out at: CDH1-null / parental viability ratio 0.91.
Silencing of PTPRA resulted in: CDH1-null / parental viability ratio 1.23.
With knock-down of VGLL4, the screen gave CDH1-null / parental viability ratio 1.12.
For UHRF2, the entry reads CDH1-null / parental viability ratio 1.15.
For PSMB2 the deposit lists CDH1-null / parental viability ratio 1.22.
Silencing of HARS2 gave: CDH1-null / parental viability ratio 0.92.
Against OR52E6 the deposit lists CDH1-null / parental viability ratio 0.96.
Depletion of AKR1D1 gave: CDH1-null / parental viability ratio 1.2.
ACBD7 gave CDH1-null / parental viability ratio 1.03.
Depletion of PDCL2 gave: CDH1-null / parental viability ratio 1.04.
WNT6 showed CDH1-null / parental viability ratio 1.16.
ID1 gave CDH1-null / parental viability ratio 1.1.
After knock-down of NME5, the record shows CDH1-null / parental viability ratio 0.94.
Depletion of SFXN1 came out at: CDH1-null / parental viability ratio 1.04.
Depletion of KRTAP5-7 gave: CDH1-null / parental viability ratio 1.33.

Copied from the list.
For “CDH1-null / parental viability ratio”, DGKZ has 1.1
Result of NME5 in “CDH1-null / parental viability ratio”: 0.94
MAP2K1, CDH1-null / parental viability ratio → 0.88
